# Primary screen of a compound library

Values are the deposited “Percent Effect”, in %. The record does not define 0% and 100%; most values in the screen are far below 50% and negative numbers occur (in some assays of this library far below -100). This is an unselected part of the compounds tested. Two or more numbers in one place are separate tests of the same structure; such repeats can differ widely.

A: 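Whole-parasite assay of Trypanosoma brucei over 72 hours; the read-out is not stated. Concentration: 30 µM. Direction is inferred from retests: higher values go with stronger inhibition. Values scatter widely below zero; nearly all retest evidence comes from the higher of the two concentrations used. Size under these conditions: about 64,000 compounds, about 940 of them at 50% or above in at least one test.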
B: 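Cell assay of Leishmania donovani living inside macrophages; the read-out is not stated. Compounds at 30 µM. Higher reads as stronger inhibition (inferred: compounds with an IC50 in retests scored well above the rest). Size under these conditions: about 69,000 compounds, about 1,000 of them at 50% or above in at least one test.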
C: 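Assay of Toxoplasma gondii numbers, read through their beta-galactosidase reporter with a colour substrate. Compounds at 10 µM. The record gives no direction; the compounds picked for IC50 retests had high values, so higher reads as fewer parasites. About 67,000 compounds were tested under these conditions; 0.38% (about 260) showed 50% or more at least once.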

{"compound": "CC(C)(CO)Nc1cc(-c2ccncc2)ncn1", "A": -5.419, "B": "25.86 & 22.02", "C": -28.67}
{"compound": "CN(C)C(=O)c1cc2c(nc1NCC1CC1)CCN(CC1CC1)CC2", "A": -34.96, "B": -8.789, "C": 13.74}
{"compound": "CCC(Nc1ccc(Oc2ccccc2OC)cc1)C(N)=O", "stereo": "centres undefined", "A": 3.896, "B": 12.78, "C": 14.41}
{"compound": "Cc1ccc(CCC(C)NC2CCN(C(N)=O)CC2)cc1", "stereo": "centres undefined", "A": 18.55, "B": 12.57, "C": 6.25}
{"compound": "COc1ccc2cc(CN(C)CCc3cn[nH]c3)c(=O)[nH]c2c1", "A": -6.759, "B": 6.36, "C": 17.21}
{"compound": "O=C(CN1CCCc2c(F)cc(Br)cc21)N1CCCC1", "A": -30.03, "B": 0.5465, "C": 2.382}
{"compound": "NC1(C(=O)NCCC2CN(Cc3ccco3)CCO2)CCCC1", "stereo": "centres undefined", "A": -10.29, "B": -14.93, "C": -6.331}
{"compound": "Cc1nc2n(n1)CC(NCC(=O)N(C)Cc1cccs1)CC2", "stereo": "centres undefined", "A": -17.12, "B": -9.1, "C": -1.883}
{"compound": "[H][C@@]12CN(C(=O)NC3CCCC3)C[C@]1(C(=O)O)CN(c1ccncc1)C2", "A": -32.54, "B": 0.7848, "C": -4.574}
{"compound": "Cn1ccnc1C(O)c1ccccc1N1CCN(Cc2ccsc2)CC1", "stereo": "centres undefined", "A": 23.99, "B": 3.782, "C": 5.031}
{"compound": "CCC(O)CN1CCN(C(=O)c2cccn2Cc2cccnc2)CC1", "stereo": "centres undefined", "A": -20.88, "B": -12.15, "C": -2.978}
{"compound": "CCCc1cc(CNC2CCN(c3cc(C)nc(N)n3)CC2)on1", "A": 24.2, "B": 6.459, "C": 7.164}
{"compound": "Cn1cc(CC(=O)N2CCCC(c3ccn[nH]3)C2)cn1", "stereo": "centres undefined", "A": 2.973, "B": 26.66, "C": -21.43}
{"compound": "O=C1CC2(CCN(c3nncs3)C2)CN1c1cccc(F)c1", "stereo": "centres undefined", "A": -75.89, "B": 0.882, "C": 23.91}
{"compound": "Cc1nc(C2CCCN(c3ncc(Br)cn3)C2)no1", "stereo": "centres undefined", "A": -66.35, "B": 3.09, "C": -3.324}
{"compound": "CCN1CCn2c(C)cnc2C12CCN(C(=O)C(C)C)CC2.O=C(O)C(F)(F)F.O=C(O)C(F)(F)F", "A": -44.58, "B": -2.466, "C": -11.14}
{"compound": "O=C(c1ccco1)N1CCC2(CCCN(c3ncc(F)cn3)C2)C1", "stereo": "centres undefined", "A": -36.3, "B": 2.531, "C": -2.868}
{"compound": "Cn1cc(CN2CCCC23CCN(C(=O)c2ccsc2)CC3)cn1.O=C(O)C(F)(F)F", "A": -0.4349, "B": 22.86, "C": 3.032}
{"compound": "CCc1noc(CN2CCN(C(=O)C3CC3)CC2)n1", "B": 17.63, "C": -11.02}
{"compound": "O=C(O)C(F)(F)F.[H][C@@]12COC[C@]1(C(=O)NC1CC(F)(F)C1)CN(c1cc(OC)ncn1)C2", "A": -25.41, "B": "18.83 & 20", "C": 6.362}

From ChEMBL document CHEMBL3988442, “University of Dundee, Small-Polar-MMV Screening Library” (2021).